These are yes or no findings as the source states them, for the method shown. Some binding calls cover weakened binding; strength is not graded here. For some of these results: Sequences can lack the tags named with a protein. Blank lines part the entries; values can stand above or below the binder they belong to.
Tests used:
[1] = molecular target: S. cerevisiae Pat1 C-terminal domain (ScPat1C, residues 473-796) (S. cerevisiae) (UniProt P25644); assay: SEC-MALS; size exclusion chromatography coupled online to a triple detection array (MALLS); protein at 2 mg/mL; both purified
[2] = molecular target: S. cerevisiae Pat1 C-terminal domain (ScPat1C, residues 473-796) (S. cerevisiae) (UniProt P25644); assay: SAXS; small angle X-ray scattering at 5.4 and 11.2 mg/mL ScPat1C; experimental curve compared with curves calculated from the monomer and from the crystal dimer; both purified
Scd6 (two-hybrid fusion) = molecular target: T1, Scd6 (two-hybrid fusion) (S. cerevisiae, UniProt P45978 1-349); assay: two-hybrid; yeast strain MAV203 (wild type for EDC3); β-galactosidase activity by Beta-Glo; Pat1 fused to Gal4AD
T1 construct: Scd6, S. cerevisiae; source: yeast two-hybrid fusion
T1 sequence (looked up): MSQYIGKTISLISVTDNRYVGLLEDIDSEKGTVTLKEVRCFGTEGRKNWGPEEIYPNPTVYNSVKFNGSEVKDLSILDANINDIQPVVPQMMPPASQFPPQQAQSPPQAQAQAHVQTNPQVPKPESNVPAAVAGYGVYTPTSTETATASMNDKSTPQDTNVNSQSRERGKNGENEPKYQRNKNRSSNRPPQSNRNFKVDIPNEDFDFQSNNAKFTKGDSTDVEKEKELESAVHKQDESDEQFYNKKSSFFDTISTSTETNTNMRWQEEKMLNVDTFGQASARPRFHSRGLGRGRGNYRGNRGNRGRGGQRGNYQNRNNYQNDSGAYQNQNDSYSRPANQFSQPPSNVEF

[3] = molecular target: T2, Edc3 (two-hybrid fusion to the DNA binding domain) (S. cerevisiae) (UniProt P39998); assay: as above
T2 sequence: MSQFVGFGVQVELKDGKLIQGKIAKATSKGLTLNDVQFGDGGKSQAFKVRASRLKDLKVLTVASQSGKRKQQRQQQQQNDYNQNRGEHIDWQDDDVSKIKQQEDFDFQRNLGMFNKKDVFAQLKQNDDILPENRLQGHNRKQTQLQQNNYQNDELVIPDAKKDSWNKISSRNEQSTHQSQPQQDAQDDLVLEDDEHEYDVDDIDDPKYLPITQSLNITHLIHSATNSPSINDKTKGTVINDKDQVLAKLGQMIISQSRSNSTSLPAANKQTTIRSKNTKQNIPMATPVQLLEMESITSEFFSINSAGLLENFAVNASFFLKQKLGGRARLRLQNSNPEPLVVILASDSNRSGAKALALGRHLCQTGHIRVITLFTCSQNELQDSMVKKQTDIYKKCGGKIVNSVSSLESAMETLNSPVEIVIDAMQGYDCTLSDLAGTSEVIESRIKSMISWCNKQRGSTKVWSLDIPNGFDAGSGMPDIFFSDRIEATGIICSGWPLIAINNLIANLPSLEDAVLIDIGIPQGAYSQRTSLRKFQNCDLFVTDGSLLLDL

binding [1]: no binding (tested: 2 mg/mL) | binding [2]: no binding (tested: 5.4 and 11.2 mg/mL)
B1: S. cerevisiae Pat1 C-terminal domain (ScPat1C, residues 473-796) (domain or fragment, UniProt P25644 473-796)
chain: GGKKFILELIETVYEEILDLEANLRNGQQTDSTAMWEALHIDDSSYDVNPFISMLSFDKGIKIMPRIFNFLDKQQKLKILQKIFNELSHLQIIILSSYKTTPKPTLTQLKKVDLFQMIILKIIVSFLSNNSNFIEIMGLLLQLIRNNNVSFLTTSKIGLNLITILISRAALIKQDSSRSNILSSPEISTWNEIYDKLFTSLESKIQLIFPPREYNDHIMRLQNDKFMDEAYIWQFLASLALSGKLNHQRIIIDEVRDEIFATINEAETLQKKEKELSVLPQRSQELDTELKSIIYNKEKLYQDLNLFLNVMGLVYRDGEISELK

binding (Scd6 (two-hybrid fusion)): binds | binding [3]: binds
B2: full-length ScPat1 (two-hybrid fusion to Gal4AD) (natural protein, S. cerevisiae, UniProt P25644 1-796, looked up)
chain: MSFFGLENSGNARDGPLDFEESYKGYGEHELEENDYLNDETFGDNVQVGTDFDFGNPHSSGSSGNAIGGNGVGATARSYVAATAEGISGPRTDGTAAAGPLDLKPMESLWSTAPPPAMAPSPQSTMAPAPAPQQMAPLQPILSMQDLERQQRQMQQQFMNFHAMGHPQGLPQGPPQQQFPMQPASGQPGPSQFAPPPPPPGVNVNMNQMPMGPVQVPVQASPSPIGMSNTPSPGPVVGATKMPLQSGRRSKRDLSPEEQRRLQIRHAKVEKILKYSGLMTPRDKDFITRYQLSQIVTEDPYNEDFYFQVYKIIQRGGITSESNKGLIARAYLEHSGHRLGGRYKRTDIALQRMQSQVEKAVTVAKERPSKLKDQQAAAGNSSQDNKQANTVLGKISSTLNSKNPRRQLQIPRQQPSDPDALKDVTDSLTNVDLASSGSSSTGSSAAAVASKQRRRSSYAFNNGNGATNLNKSGGKKFILELIETVYEEILDLEANLRNGQQTDSTAMWEALHIDDSSYDVNPFISMLSFDKGIKIMPRIFNFLDKQQKLKILQKIFNELSHLQIIILSSYKTTPKPTLTQLKKVDLFQMIILKIIVSFLSNNSNFIEIMGLLLQLIRNNNVSFLTTSKIGLNLITILISRAALIKQDSSRSNILSSPEISTWNEIYDKLFTSLESKIQLIFPPREYNDHIMRLQNDKFMDEAYIWQFLASLALSGKLNHQRIIIDEVRDEIFATINEAETLQKKEKELSVLPQRSQELDTELKSIIYNKEKLYQDLNLFLNVMGLVYRDGEISELK
notes: Pat1, S. cerevisiae, full-length; pBS2374 is named only as the template for the Gal4AD-Pat1ΔC68 plasmid pBS4907; also called wild type ScPat1; full-length Pat1 protein; source: yeast two-hybrid fusion
